Publication PMC11442835
No constants are given. Whether binding was seen depends on the method and setting. Binding seen in cells or lysates may run through a third protein. Some results given as binding are weak or reduced against the parent protein; the word gives no strength.

Chains of the proteins cited; added tags and fusions are not shown.
UniProt O94972: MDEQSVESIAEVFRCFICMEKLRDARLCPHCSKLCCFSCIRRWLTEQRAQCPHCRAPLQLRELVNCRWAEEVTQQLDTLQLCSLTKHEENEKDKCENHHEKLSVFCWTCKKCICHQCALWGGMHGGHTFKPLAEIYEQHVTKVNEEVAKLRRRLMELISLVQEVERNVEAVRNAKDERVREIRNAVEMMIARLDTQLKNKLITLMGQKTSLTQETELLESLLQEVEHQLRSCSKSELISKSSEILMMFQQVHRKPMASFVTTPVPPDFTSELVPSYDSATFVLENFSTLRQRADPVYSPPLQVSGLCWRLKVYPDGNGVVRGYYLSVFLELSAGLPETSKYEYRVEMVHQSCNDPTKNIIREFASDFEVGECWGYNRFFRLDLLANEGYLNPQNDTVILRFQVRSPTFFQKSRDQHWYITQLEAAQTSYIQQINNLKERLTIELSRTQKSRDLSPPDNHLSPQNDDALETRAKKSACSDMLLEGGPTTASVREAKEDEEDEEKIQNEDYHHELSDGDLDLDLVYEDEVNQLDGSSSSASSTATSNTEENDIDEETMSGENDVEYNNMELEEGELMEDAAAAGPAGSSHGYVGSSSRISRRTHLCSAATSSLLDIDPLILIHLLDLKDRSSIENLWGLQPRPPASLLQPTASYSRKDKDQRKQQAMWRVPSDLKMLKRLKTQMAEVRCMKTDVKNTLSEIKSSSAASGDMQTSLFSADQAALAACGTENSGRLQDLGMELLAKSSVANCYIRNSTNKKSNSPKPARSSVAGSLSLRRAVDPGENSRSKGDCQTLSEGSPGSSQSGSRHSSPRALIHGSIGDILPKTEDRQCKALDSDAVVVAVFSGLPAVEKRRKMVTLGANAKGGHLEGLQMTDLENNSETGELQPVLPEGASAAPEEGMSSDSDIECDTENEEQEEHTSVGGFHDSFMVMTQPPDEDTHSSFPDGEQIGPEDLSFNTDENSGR
UniProt Q8TAQ2: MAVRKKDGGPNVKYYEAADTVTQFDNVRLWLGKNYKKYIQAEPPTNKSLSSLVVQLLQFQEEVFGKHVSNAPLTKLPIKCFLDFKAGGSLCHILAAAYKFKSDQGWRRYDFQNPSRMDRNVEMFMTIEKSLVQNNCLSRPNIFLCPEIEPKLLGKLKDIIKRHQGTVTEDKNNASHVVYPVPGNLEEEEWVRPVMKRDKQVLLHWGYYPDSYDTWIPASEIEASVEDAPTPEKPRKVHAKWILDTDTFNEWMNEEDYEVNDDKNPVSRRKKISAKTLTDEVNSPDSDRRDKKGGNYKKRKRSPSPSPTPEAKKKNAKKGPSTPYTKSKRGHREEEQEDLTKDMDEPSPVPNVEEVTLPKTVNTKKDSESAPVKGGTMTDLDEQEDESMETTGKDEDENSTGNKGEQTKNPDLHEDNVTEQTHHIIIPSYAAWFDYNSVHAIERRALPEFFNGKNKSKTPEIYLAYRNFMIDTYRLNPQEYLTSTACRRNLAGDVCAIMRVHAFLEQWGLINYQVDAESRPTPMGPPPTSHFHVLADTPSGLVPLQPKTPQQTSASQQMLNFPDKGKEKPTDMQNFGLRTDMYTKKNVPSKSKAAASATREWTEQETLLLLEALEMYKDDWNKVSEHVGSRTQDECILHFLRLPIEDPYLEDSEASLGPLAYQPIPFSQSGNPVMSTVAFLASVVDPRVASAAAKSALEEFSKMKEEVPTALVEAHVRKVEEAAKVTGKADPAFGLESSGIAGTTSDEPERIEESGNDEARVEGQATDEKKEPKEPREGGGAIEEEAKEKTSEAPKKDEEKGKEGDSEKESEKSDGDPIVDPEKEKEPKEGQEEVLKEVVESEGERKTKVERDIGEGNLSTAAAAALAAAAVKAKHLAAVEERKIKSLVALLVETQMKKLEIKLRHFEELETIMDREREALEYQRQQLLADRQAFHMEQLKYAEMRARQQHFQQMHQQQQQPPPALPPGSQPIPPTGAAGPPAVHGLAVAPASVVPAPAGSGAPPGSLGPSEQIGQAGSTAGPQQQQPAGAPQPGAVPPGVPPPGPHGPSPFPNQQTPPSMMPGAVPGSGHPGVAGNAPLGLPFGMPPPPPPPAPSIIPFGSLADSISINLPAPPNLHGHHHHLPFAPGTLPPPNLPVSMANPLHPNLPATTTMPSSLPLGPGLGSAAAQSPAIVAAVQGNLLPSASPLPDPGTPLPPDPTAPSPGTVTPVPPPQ

Molecular target: Tripartite motif-containing 37 (TRIM37) (human (RCC cell lines; the cell line of the Co-IP is not stated)) (UniProt O94972)
Assay: co-IP; Co-IP from fresh cell protein with antibody on protein A/G magnetic beads (antibody and beads at 4 °C overnight), IP buffer washes, eluted proteins analysed by western blot

binding: binds
Substance: SMARCC2 (from UniProt Q8TAQ2 1-1214)
